{"sequences": {"note": "By UniProt entry, the sequences of proteins in these tests, tags left out. Where a name states a change or a piece, a line headed by the entry shows the natural chain unless it says otherwise.", "UniProt P48723": "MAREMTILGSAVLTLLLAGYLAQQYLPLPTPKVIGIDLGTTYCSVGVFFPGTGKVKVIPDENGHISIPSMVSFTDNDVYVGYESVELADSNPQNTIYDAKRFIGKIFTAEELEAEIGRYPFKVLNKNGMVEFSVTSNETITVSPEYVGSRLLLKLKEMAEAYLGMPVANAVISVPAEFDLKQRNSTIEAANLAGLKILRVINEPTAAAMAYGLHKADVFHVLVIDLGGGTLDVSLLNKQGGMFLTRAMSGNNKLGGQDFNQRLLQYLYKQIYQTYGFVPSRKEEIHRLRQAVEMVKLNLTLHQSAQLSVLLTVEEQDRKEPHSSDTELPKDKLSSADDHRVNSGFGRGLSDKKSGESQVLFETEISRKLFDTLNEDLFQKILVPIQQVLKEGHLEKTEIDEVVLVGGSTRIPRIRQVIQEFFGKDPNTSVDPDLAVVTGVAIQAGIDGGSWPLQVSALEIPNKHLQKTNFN", "UniProt O43390": "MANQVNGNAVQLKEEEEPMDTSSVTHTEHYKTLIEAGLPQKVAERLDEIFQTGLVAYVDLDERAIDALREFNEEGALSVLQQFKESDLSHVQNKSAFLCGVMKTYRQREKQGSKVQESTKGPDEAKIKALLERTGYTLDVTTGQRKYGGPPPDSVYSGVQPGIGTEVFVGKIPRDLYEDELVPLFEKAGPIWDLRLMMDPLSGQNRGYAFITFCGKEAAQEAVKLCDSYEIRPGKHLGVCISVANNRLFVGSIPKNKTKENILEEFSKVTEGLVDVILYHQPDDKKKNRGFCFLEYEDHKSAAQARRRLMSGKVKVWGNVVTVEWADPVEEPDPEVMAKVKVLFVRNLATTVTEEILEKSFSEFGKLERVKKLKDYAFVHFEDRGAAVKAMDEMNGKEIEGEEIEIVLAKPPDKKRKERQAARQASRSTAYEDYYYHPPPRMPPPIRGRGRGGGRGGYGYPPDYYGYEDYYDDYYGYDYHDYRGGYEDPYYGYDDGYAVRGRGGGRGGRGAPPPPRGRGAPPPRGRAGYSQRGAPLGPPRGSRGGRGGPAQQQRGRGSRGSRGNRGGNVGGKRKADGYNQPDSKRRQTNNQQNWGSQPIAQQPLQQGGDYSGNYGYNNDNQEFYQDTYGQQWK", "UniProt Q6NVY1": "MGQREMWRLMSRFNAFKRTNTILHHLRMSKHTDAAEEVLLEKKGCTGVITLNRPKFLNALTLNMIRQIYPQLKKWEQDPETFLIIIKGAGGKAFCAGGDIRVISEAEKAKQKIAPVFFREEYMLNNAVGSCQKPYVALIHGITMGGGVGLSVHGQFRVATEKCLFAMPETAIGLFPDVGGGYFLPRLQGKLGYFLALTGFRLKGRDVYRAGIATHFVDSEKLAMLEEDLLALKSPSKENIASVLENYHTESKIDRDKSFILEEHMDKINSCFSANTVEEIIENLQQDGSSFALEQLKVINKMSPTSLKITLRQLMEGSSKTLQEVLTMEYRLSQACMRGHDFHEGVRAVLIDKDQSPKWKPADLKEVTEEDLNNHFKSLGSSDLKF", "UniProt P30519": "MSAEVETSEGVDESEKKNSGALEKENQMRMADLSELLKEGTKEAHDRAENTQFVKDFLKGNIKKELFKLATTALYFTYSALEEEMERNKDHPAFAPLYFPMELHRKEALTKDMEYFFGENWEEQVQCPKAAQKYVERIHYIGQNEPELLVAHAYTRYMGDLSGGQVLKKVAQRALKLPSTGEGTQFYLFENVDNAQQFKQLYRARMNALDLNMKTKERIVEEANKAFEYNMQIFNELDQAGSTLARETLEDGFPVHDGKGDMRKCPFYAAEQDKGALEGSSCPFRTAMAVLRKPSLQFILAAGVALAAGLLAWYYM", "UniProt P31937": "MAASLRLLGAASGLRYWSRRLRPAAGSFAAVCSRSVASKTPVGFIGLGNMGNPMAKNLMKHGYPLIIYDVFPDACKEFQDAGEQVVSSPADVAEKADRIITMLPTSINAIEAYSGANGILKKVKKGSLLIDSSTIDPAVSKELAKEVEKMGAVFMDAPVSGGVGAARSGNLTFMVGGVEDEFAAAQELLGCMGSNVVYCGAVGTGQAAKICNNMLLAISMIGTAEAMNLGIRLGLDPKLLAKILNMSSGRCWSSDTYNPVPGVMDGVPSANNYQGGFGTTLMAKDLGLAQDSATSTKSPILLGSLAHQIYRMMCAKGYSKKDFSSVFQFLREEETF", "UniProt Q96JB3": "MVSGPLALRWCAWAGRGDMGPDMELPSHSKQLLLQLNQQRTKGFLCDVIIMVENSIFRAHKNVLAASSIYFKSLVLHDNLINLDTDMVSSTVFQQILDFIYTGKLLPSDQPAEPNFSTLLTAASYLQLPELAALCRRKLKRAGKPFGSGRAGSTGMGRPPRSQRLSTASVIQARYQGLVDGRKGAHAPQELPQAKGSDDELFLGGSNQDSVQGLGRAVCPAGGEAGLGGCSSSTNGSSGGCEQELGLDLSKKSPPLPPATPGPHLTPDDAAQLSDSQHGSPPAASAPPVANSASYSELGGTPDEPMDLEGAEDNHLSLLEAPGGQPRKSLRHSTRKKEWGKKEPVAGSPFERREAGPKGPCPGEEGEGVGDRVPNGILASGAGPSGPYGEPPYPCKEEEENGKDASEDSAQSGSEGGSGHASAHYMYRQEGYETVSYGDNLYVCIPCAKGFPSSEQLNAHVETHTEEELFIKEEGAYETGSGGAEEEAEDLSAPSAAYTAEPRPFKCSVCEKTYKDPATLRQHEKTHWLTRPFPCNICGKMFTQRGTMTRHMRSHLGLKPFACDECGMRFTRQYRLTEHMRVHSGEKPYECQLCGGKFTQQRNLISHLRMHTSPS", "UniProt P11021": "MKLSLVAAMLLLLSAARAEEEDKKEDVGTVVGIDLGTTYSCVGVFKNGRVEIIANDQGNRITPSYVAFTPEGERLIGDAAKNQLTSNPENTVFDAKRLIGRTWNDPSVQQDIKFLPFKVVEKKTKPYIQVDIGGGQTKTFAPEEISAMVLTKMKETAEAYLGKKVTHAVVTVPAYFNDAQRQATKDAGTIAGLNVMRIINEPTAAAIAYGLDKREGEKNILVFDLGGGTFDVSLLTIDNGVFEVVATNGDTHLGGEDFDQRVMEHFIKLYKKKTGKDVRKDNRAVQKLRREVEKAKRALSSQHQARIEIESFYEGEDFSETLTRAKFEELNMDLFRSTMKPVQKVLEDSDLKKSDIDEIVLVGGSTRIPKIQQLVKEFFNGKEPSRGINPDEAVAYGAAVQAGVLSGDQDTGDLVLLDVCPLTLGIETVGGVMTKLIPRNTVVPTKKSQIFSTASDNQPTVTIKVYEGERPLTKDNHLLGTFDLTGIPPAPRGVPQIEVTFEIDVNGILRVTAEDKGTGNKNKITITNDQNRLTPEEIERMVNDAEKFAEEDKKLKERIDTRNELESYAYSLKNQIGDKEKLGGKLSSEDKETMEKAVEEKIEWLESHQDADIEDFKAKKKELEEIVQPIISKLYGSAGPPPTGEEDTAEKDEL", "UniProt O43464": "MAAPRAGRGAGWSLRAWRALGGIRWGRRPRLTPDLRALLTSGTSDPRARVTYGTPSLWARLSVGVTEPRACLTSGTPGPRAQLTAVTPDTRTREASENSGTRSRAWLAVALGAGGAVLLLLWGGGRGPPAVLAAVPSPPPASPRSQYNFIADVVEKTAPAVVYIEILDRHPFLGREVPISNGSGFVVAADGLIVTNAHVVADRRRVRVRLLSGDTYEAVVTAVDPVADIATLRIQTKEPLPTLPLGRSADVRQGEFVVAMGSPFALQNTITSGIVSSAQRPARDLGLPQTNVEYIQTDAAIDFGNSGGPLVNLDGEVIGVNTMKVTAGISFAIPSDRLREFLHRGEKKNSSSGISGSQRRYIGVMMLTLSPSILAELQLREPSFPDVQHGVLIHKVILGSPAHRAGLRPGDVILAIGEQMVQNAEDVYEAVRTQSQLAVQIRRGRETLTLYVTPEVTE", "UniProt P17096": "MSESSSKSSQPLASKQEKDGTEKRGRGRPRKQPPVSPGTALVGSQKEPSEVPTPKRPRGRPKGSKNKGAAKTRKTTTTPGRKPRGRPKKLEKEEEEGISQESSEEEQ", "UniProt P04792, whole entry, looked up": "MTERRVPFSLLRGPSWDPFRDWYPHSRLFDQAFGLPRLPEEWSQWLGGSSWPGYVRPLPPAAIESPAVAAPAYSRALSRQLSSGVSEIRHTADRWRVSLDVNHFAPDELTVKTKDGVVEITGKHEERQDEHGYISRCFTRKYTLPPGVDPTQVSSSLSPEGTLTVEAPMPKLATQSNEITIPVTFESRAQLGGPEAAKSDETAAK", "UniProt Q9BX68": "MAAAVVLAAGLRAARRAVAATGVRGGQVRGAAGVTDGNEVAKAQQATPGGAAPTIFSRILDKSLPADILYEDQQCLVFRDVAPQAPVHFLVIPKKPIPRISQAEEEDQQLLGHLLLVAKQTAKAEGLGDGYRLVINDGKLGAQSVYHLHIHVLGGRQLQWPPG", "UniProt O43719": "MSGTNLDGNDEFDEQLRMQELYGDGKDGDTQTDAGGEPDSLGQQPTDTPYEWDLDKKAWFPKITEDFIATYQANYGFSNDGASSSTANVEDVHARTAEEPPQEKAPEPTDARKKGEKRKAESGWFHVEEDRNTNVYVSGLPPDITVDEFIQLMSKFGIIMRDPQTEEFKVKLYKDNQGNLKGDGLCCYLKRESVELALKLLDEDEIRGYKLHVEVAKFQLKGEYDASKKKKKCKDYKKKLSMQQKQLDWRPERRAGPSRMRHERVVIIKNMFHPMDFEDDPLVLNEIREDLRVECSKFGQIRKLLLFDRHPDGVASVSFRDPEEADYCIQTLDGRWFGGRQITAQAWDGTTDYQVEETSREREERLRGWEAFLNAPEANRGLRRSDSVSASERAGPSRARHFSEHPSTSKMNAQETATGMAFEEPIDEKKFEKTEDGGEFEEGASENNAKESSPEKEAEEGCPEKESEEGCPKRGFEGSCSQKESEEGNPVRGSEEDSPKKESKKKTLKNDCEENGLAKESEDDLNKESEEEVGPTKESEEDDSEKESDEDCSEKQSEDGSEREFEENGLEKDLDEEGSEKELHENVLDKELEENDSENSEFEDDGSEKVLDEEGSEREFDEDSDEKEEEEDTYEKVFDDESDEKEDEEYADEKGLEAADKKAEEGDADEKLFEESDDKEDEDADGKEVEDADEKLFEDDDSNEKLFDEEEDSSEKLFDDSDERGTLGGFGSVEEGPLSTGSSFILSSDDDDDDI", "UniProt Q9NX55": "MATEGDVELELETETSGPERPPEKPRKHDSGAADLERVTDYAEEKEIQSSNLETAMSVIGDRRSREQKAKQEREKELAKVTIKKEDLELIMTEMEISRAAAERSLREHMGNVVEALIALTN", "UniProt O14979": "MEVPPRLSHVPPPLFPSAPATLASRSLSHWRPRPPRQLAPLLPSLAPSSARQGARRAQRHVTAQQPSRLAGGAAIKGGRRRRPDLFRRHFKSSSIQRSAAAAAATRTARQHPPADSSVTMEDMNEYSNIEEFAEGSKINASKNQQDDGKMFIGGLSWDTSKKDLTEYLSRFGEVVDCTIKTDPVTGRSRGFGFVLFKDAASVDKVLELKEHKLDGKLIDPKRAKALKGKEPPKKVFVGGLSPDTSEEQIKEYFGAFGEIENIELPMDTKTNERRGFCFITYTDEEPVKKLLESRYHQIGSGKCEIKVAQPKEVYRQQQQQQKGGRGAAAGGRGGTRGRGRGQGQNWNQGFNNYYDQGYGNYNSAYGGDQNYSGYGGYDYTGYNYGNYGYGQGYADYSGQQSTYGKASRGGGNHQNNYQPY", "UniProt Q2TB90": "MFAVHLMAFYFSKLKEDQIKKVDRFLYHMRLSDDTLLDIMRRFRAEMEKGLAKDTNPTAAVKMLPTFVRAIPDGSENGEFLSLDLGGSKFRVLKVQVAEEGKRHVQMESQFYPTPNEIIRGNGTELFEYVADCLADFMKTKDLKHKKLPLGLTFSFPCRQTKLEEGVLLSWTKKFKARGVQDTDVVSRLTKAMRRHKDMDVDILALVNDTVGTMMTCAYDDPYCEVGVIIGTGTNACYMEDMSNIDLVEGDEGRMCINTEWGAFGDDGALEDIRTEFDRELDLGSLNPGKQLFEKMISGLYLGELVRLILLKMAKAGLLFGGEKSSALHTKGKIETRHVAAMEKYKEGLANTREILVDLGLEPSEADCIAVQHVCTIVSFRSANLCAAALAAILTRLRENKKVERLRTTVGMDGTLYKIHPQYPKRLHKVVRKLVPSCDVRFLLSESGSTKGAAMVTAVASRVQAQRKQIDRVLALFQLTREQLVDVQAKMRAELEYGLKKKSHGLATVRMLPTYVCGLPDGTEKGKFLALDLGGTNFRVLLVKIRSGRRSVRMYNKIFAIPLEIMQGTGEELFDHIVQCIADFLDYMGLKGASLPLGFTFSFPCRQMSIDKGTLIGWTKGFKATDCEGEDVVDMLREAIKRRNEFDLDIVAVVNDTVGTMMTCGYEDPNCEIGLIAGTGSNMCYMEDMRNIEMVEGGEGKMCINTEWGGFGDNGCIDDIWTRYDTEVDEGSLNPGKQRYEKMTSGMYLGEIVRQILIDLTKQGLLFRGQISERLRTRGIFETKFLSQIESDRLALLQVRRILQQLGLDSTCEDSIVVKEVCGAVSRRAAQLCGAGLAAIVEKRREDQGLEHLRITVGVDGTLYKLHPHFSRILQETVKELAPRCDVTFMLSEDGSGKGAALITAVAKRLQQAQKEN"}, "source": "the supplement of paper PMC10849652", "note": "This is one part of the list.", "data": [{"compound": "Cn1cc(-c2ccc3c(c2)CCN3C(=O)Cc2cccc(C(F)(F)F)c2)c2c(N)ncnc21", "assay": "log2 fold change, soluble protein after heating vs DMSO (PISA); higher = thermal stabilisation; K562 cells, 10 uM, 30 min; active = over 0.2 and 3.5 SD of the protein, either way, in both replicates (recomputed)", "method_in_brief": "(§1)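 Soluble protein was defined as the supernatant after 21,000xg for 90 min. It came from K562 cells at 2×10^6 cells/mL given 10 μM compound for 30 min, heated in aliquots for 3 min across 48°C-58°C, pooled, and extracted in PBS with 0.5% NP-40 at 4°C, and was quantified by TMTpro 16plex LC-MS/MS with equalised channel sums. Thermal stability against control samples, from duplicates, is reported as log2 fold change.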", "values": [{"target": "HNRNPK isoform 2 (UniProt P61978)", "log2 fold change": "inactive: 0.031"}, {"target": "HNRNPU (UniProt Q00839)", "log2 fold change": "inactive: -0.273"}, {"target": "HSPA13 (UniProt P48723)", "log2 fold change": "inactive: 0.043"}, {"target": "HNRNPR isoform 2 (UniProt O43390)", "log2 fold change": "inactive: -0.21"}, {"target": "HIST2H3A (UniProt Q71DI3)", "log2 fold change": "inactive: -0.258"}, {"target": "HIBCH (UniProt Q6NVY1)", "log2 fold change": "inactive: 0.09"}, {"target": "HNRNPA1 (UniProt P09651)", "log2 fold change": "inactive: -0.277"}, {"target": "HMOX2 (UniProt P30519)", "log2 fold change": "inactive: 0.067"}, {"target": "HOOK3 (UniProt Q86VS8)", "log2 fold change": "inactive: 0.002"}, {"target": "HIBADH (UniProt P31937)", "log2 fold change": "inactive: 0.048"}, {"target": "HMGN4 (UniProt O00479)", "log2 fold change": "inactive: 0.104"}, {"target": "HIC2 (UniProt Q96JB3)", "log2 fold change": "inactive: -0.124"}, {"target": "HMGCS1 (UniProt Q01581)", "log2 fold change": "inactive: 0.047"}, {"target": "HLTF (UniProt Q14527)", "log2 fold change": "inactive: -0.035"}, {"target": "HSPA1L (UniProt P34931)", "log2 fold change": "inactive: 0.244"}, {"target": "HSPA5 (UniProt P11021)", "log2 fold change": "inactive: 0.02"}, {"target": "HSPA9 (UniProt P38646)", "log2 fold change": "inactive: 0.023"}, {"target": "HTRA2 (UniProt O43464)", "log2 fold change": "inactive: -0.008"}, {"target": "HMGA1 (UniProt P17096)", "log2 fold change": "inactive: -0.091"}, {"target": "HSPB1 (UniProt P04792)", "log2 fold change": "inactive: -0.044"}, {"target": "HINT2 (UniProt Q9BX68)", "log2 fold change": "inactive: -0.024"}, {"target": "HNRNPH3 (UniProt P31942)", "log2 fold change": "inactive: -0.231"}, {"target": "HNRNPD (UniProt Q14103)", "log2 fold change": "inactive: -0.117"}, {"target": "HNRNPA3 (UniProt P51991)", "log2 fold change": "inactive: -0.495"}, {"target": "HMGB3 (UniProt O15347)", "log2 fold change": "inactive: 0.014"}, {"target": "HTATSF1 (UniProt O43719)", "log2 fold change": "inactive: 0.008"}, {"target": "HGH1 (UniProt Q9BTY7)", "log2 fold change": "inactive: -0.037"}, {"target": "HIRIP3 (UniProt Q9BW71)", "log2 fold change": "inactive: -0.009"}, {"target": "HYPK (UniProt Q9NX55)", "log2 fold change": "inactive: 0.089"}, {"target": "HNRNPDL (UniProt O14979)", "log2 fold change": "inactive: -0.143"}, {"target": "HSPBP1 isoform 3 (UniProt Q9NZL4)", "log2 fold change": "inactive: -0.014"}, {"target": "HKDC1 (UniProt Q2TB90)", "log2 fold change": "inactive: 0.019"}, {"target": "HNRNPUL1 (UniProt Q9BUJ2)", "log2 fold change": "inactive: -0.03"}]}, {"compound": "Cn1cc(-c2ccc3nnc(C(F)(F)c4ccc5ncccc5c4)n3n2)cn1", "assay": "log2 fold change, soluble protein after heating vs DMSO (PISA); higher = thermal stabilisation; K562 cells, 10 uM, 30 min; active = over 0.2 and 3.5 SD of the protein, either way, in both replicates (recomputed)", "method_in_brief": "as §1", "values": [{"target": "HNRNPK isoform 2 (UniProt P61978)", "log2 fold change": "inactive: 0.017"}, {"target": "HNRNPU (UniProt Q00839)", "log2 fold change": "inactive: 0.002"}, {"target": "HSPA13 (UniProt P48723)", "log2 fold change": "inactive: -0.011"}, {"target": "HNRNPR isoform 2 (UniProt O43390)", "log2 fold change": "inactive: -0.073"}, {"target": "HIST2H3A (UniProt Q71DI3)", "log2 fold change": "inactive: -0.054"}, {"target": "HIBCH (UniProt Q6NVY1)", "log2 fold change": "inactive: 0.047"}, {"target": "HNRNPA1 (UniProt P09651)", "log2 fold change": "inactive: -0.133"}, {"target": "HMOX2 (UniProt P30519)", "log2 fold change": "inactive: 0.003"}, {"target": "HOOK3 (UniProt Q86VS8)", "log2 fold change": "inactive: -0.027"}, {"target": "HIBADH (UniProt P31937)", "log2 fold change": "inactive: 0.006"}, {"target": "HMGN4 (UniProt O00479)", "log2 fold change": "inactive: -0.111"}, {"target": "HIC2 (UniProt Q96JB3)", "log2 fold change": "inactive: -0.032"}, {"target": "HMGCS1 (UniProt Q01581)", "log2 fold change": "inactive: -0.006"}, {"target": "HLTF (UniProt Q14527)", "log2 fold change": "inactive: -0.01"}, {"target": "HSPA1L (UniProt P34931)", "log2 fold change": "inactive: 0.063"}, {"target": "HSPA5 (UniProt P11021)", "log2 fold change": "inactive: 0.005"}, {"target": "HSPA9 (UniProt P38646)", "log2 fold change": "inactive: 0"}, {"target": "HTRA2 (UniProt O43464)", "log2 fold change": "inactive: 0.027"}, {"target": "HMGA1 (UniProt P17096)", "log2 fold change": "inactive: -0.066"}, {"target": "HSPB1 (UniProt P04792)", "log2 fold change": "inactive: -0.055"}, {"target": "HINT2 (UniProt Q9BX68)", "log2 fold change": "inactive: 0.266"}, {"target": "HNRNPH3 (UniProt P31942)", "log2 fold change": "inactive: -0.136"}, {"target": "HNRNPD (UniProt Q14103)", "log2 fold change": "inactive: -0.055"}, {"target": "HNRNPA3 (UniProt P51991)", "log2 fold change": "inactive: -0.233"}, {"target": "HMGB3 (UniProt O15347)", "log2 fold change": "inactive: -0.084"}, {"target": "HTATSF1 (UniProt O43719)", "log2 fold change": "inactive: 0.082"}, {"target": "HGH1 (UniProt Q9BTY7)", "log2 fold change": "inactive: -0.089"}, {"target": "HIRIP3 (UniProt Q9BW71)", "log2 fold change": "inactive: 0.012"}, {"target": "HYPK (UniProt Q9NX55)", "log2 fold change": "inactive: 0.023"}, {"target": "HNRNPDL (UniProt O14979)", "log2 fold change": "inactive: -0.097"}, {"target": "HSPBP1 isoform 3 (UniProt Q9NZL4)", "log2 fold change": "inactive: -0.032"}, {"target": "HKDC1 (UniProt Q2TB90)", "log2 fold change": "inactive: 0.032"}, {"target": "HNRNPUL1 (UniProt Q9BUJ2)", "log2 fold change": "inactive: -0.007"}]}, {"compound": "Cn1cncc1[C@@](N)(c1ccc(Cl)cc1)c1ccc2c(c1)c(-c1cccc(Cl)c1)cc(=O)n2C [tipifarnib]", "assay": "log2 fold change, soluble protein after heating vs DMSO (PISA); higher = thermal stabilisation; K562 cells, 10 uM, 30 min; active = over 0.2 and 3.5 SD of the protein, either way, in both replicates (recomputed)", "method_in_brief": "as §1", "values": [{"target": "HNRNPK isoform 2 (UniProt P61978)", "log2 fold change": "inactive: 0.007"}, {"target": "HNRNPU (UniProt Q00839)", "log2 fold change": "inactive: 0.038"}, {"target": "HSPA13 (UniProt P48723)", "log2 fold change": "inactive: -0.015"}, {"target": "HNRNPR isoform 2 (UniProt O43390)", "log2 fold change": "inactive: 0.097"}, {"target": "HIST2H3A (UniProt Q71DI3)", "log2 fold change": "inactive: 0.031"}, {"target": "HIBCH (UniProt Q6NVY1)", "log2 fold change": "inactive: -0.102"}, {"target": "HNRNPA1 (UniProt P09651)", "log2 fold change": "inactive: 0.083"}, {"target": "HMOX2 (UniProt P30519)", "log2 fold change": "active: 0.27"}, {"target": "HOOK3 (UniProt Q86VS8)", "log2 fold change": "inactive: -0.001"}, {"target": "HIBADH (UniProt P31937)", "log2 fold change": "inactive: 0.01"}, {"target": "HMGN4 (UniProt O00479)", "log2 fold change": "inactive: -0.055"}, {"target": "HIC2 (UniProt Q96JB3)", "log2 fold change": "inactive: -0.051"}, {"target": "HMGCS1 (UniProt Q01581)", "log2 fold change": "inactive: 0.019"}, {"target": "HLTF (UniProt Q14527)", "log2 fold change": "inactive: 0.007"}, {"target": "HSPA1L (UniProt P34931)", "log2 fold change": "inactive: 0.001"}, {"target": "HSPA5 (UniProt P11021)", "log2 fold change": "inactive: 0.046"}, {"target": "HSPA9 (UniProt P38646)", "log2 fold change": "inactive: 0.041"}, {"target": "HTRA2 (UniProt O43464)", "log2 fold change": "inactive: -0.002"}, {"target": "HMGA1 (UniProt P17096)", "log2 fold change": "inactive: 0.105"}, {"target": "HSPB1 (UniProt P04792)", "log2 fold change": "inactive: 0.003"}, {"target": "HINT2 (UniProt Q9BX68)", "log2 fold change": "inactive: 0.105"}, {"target": "HNRNPH3 (UniProt P31942)", "log2 fold change": "inactive: -0.01"}, {"target": "HNRNPD (UniProt Q14103)", "log2 fold change": "inactive: 0.078"}, {"target": "HNRNPA3 (UniProt P51991)", "log2 fold change": "inactive: 0.138"}, {"target": "HMGB3 (UniProt O15347)", "log2 fold change": "inactive: -0.024"}, {"target": "HTATSF1 (UniProt O43719)", "log2 fold change": "inactive: 0.101"}, {"target": "HGH1 (UniProt Q9BTY7)", "log2 fold change": "inactive: -0.003"}, {"target": "HIRIP3 (UniProt Q9BW71)", "log2 fold change": "inactive: -0.024"}, {"target": "HYPK (UniProt Q9NX55)", "log2 fold change": "inactive: -0.016"}, {"target": "HNRNPDL (UniProt O14979)", "log2 fold change": "inactive: 0.087"}, {"target": "HSPBP1 isoform 3 (UniProt Q9NZL4)", "log2 fold change": "inactive: -0.075"}, {"target": "HKDC1 (UniProt Q2TB90)", "log2 fold change": "inactive: 0.037"}, {"target": "HNRNPUL1 (UniProt Q9BUJ2)", "log2 fold change": "inactive: 0.059"}]}]}
